B1: HA-tagged mouse NHE9 (protein, UniProt Q8BZ00 1-644)
chain: MAGQLRFTSGKDEDHFQHQGAVELLAFNFLLILTILTIWLFKNHRFRFLHETGGAMVYGLIMGLILRYATAPTDIDSGTVYNCGNLFFSPSTLLVNITDQVYEYKYQREINQHNISPHQGNAILEKMTFDPEIFFNVLLPPIIFHAGYSLKKRHFFQNLGSILTYAFLGTAISCVVIGLIMYGFVKAMVHAGQLKSGDFHFTDCLFFGSLMSATDPVTVLAIFHELHVDPDLYTLLFGESVLNDAVAIVLTYSISIYSPKENPNAFDTAAFFQSVGNFLGIFAGSFAMGSAYAVVTALLTKFTKLREFPMLETGLFFLLSWSAFLSAEAAGLTGIVAVLFCGVTQAHYTYNNLSSDSKLRTKQLFEFMNFLAENVIFCYMGLALFTFQNHIFNALFILGAFLAIFVARACNIYPLSFLLNLGRKQKIPWNFQHMMMFSGLRGAIAFALAIRNTESQPKQMMFTTTLLLVFFTVWVFGGGTTPMLTWLQIRVGVDLDESLKEEPSSQQEANKLDKNMTKTESAQLFRMWYGFDHKYLKPILTHSGPPLTTTLPAWCGPVSRLLTSPQAYGEQLKEDDVECIVNQDELAMNYQEQSPSPSSPTTKLALDQKSSGQTPGKENIYEGDLGLGGYDLKLEQTRGQPQMD
B2: GGA1 coexpressed with GGA3 (protein, UniProt Q8R0H9 1-635)
chain: MEPAMEPETLEARINRATNPLNKELNWASINSFCEQLNEDFEGPPLATRLLAHKIQSPQEWEAIQALTVLETCMKSCGKRFHDEVGKFRFLNELIKVVSPKYLGSRTSEKVKSKILELLYSWTVCLPEEVKIAEAYQMLKKQGIVKSDPKLPEDAIFPLPPPRPKNVIFEDEEKSKMLARLLKSSHPEDLRAANKLIKEMVQEDQKRMEKISKRVNAIEEVNNNVKLLTEMVMSHSQGAASSSSEDLMKELYQRCERMRPTLFRLASDTEDNDEALAEILQANDNLTQVINLYKQLVRGEEVNGDATASSIPGSTSALLDLSGLDLPPPGTTQPATPTRPGNQSSPEQLSASVSLLDDELMSLGLSDPTPPSGTSSDSVGWDNFQSSDGTESSVPPPAQAPSMDCRPPAQAPPPTSSGLDDLDLLGKTLMQQALPPEAQQVRWEKQQPAPRLTLRDLQSKSSSPSPGAASLLHTTSPEPPGPPPQATPTEFSLTSITVPLESIKPSSILPVTVYDQHGFRVLFHFARDPLPGRSDVLVVVVSMLSTAPQPIRNIVFQSAVPKVMKVRLQPPSGTELPAFNPIVHPSAITQVLLLANPQKEKVRLRYKLIFTMGDQTYNEMGDVDQFPPPETWGSL
B3: GFP-tagged mGGA1 GAT+Hinge (aa 171–505) (domain or fragment, UniProt Q8R0H9 171-505)
chain: DEEKSKMLARLLKSSHPEDLRAANKLIKEMVQEDQKRMEKISKRVNAIEEVNNNVKLLTEMVMSHSQGAASSSSEDLMKELYQRCERMRPTLFRLASDTEDNDEALAEILQANDNLTQVINLYKQLVRGEEVNGDATASSIPGSTSALLDLSGLDLPPPGTTQPATPTRPGNQSSPEQLSASVSLLDDELMSLGLSDPTPPSGTSSDSVGWDNFQSSDGTESSVPPPAQAPSMDCRPPAQAPPPTSSGLDDLDLLGKTLMQQALPPEAQQVRWEKQQPAPRLTLRDLQSKSSSPSPGAASLLHTTSPEPPGPPPQATPTEFSLTSITVPLESIKP
B4: GFP-tagged mGGA1 Hinge+GAE (aa 299–627) (domain or fragment, UniProt Q8R0H9 299-627)
chain: GEEVNGDATASSIPGSTSALLDLSGLDLPPPGTTQPATPTRPGNQSSPEQLSASVSLLDDELMSLGLSDPTPPSGTSSDSVGWDNFQSSDGTESSVPPPAQAPSMDCRPPAQAPPPTSSGLDDLDLLGKTLMQQALPPEAQQVRWEKQQPAPRLTLRDLQSKSSSPSPGAASLLHTTSPEPPGPPPQATPTEFSLTSITVPLESIKPSSILPVTVYDQHGFRVLFHFARDPLPGRSDVLVVVVSMLSTAPQPIRNIVFQSAVPKVMKVRLQPPSGTELPAFNPIVHPSAITQVLLLANPQKEKVRLRYKLIFTMGDQTYNEMGDVDQFP
B5: GFP-tagged mGGA1 del Hinge (del aa 299–505) (protein, UniProt Q8R0H9)
chain: MEPAMEPETLEARINRATNPLNKELNWASINSFCEQLNEDFEGPPLATRLLAHKIQSPQEWEAIQALTVLETCMKSCGKRFHDEVGKFRFLNELIKVVSPKYLGSRTSEKVKSKILELLYSWTVCLPEEVKIAEAYQMLKKQGIVKSDPKLPEDAIFPLPPPRPKNVIFEDEEKSKMLARLLKSSHPEDLRAANKLIKEMVQEDQKRMEKISKRVNAIEEVNNNVKLLTEMVMSHSQGAASSSSEDLMKELYQRCERMRPTLFRLASDTEDNDEALAEILQANDNLTQVINLYKQLVRSSILPVTVYDQHGFRVLFHFARDPLPGRSDVLVVVVSMLSTAPQPIRNIVFQSAVPKVMKVRLQPPSGTELPAFNPIVHPSAITQVLLLANPQKEKVRLRYKLIFTMGDQTYNEMGDVDQFPPPETWGSL
B6: GFP-tagged mGGA1 VHS domain (aa 17–147) (domain or fragment, UniProt Q8R0H9 17-147)
chain: ATNPLNKELNWASINSFCEQLNEDFEGPPLATRLLAHKIQSPQEWEAIQALTVLETCMKSCGKRFHDEVGKFRFLNELIKVVSPKYLGSRTSEKVKSKILELLYSWTVCLPEEVKIAEAYQMLKKQGIVKS
B7: GFP-tagged mGGA1 Hinge domain (aa 299–505) (domain or fragment, UniProt Q8R0H9 299-505)
chain: GEEVNGDATASSIPGSTSALLDLSGLDLPPPGTTQPATPTRPGNQSSPEQLSASVSLLDDELMSLGLSDPTPPSGTSSDSVGWDNFQSSDGTESSVPPPAQAPSMDCRPPAQAPPPTSSGLDDLDLLGKTLMQQALPPEAQQVRWEKQQPAPRLTLRDLQSKSSSPSPGAASLLHTTSPEPPGPPPQATPTEFSLTSITVPLESIKP
B8: GFP-tagged mGGA1 GAE domain (aa 506–627) (domain or fragment, UniProt Q8R0H9 506-627)
chain: SSILPVTVYDQHGFRVLFHFARDPLPGRSDVLVVVVSMLSTAPQPIRNIVFQSAVPKVMKVRLQPPSGTELPAFNPIVHPSAITQVLLLANPQKEKVRLRYKLIFTMGDQTYNEMGDVDQFP
B9: GFP-tagged mGGA1 VHS + GAT (aa 1–298) (domain or fragment, UniProt Q8R0H9 1-298)
chain: MEPAMEPETLEARINRATNPLNKELNWASINSFCEQLNEDFEGPPLATRLLAHKIQSPQEWEAIQALTVLETCMKSCGKRFHDEVGKFRFLNELIKVVSPKYLGSRTSEKVKSKILELLYSWTVCLPEEVKIAEAYQMLKKQGIVKSDPKLPEDAIFPLPPPRPKNVIFEDEEKSKMLARLLKSSHPEDLRAANKLIKEMVQEDQKRMEKISKRVNAIEEVNNNVKLLTEMVMSHSQGAASSSSEDLMKELYQRCERMRPTLFRLASDTEDNDEALAEILQANDNLTQVINLYKQLVR
B10: mGGA1 (mouse GGA1 from pCMV-mGGA1, untagged) (protein, UniProt Q8R0H9 1-635)
chain: MEPAMEPETLEARINRATNPLNKELNWASINSFCEQLNEDFEGPPLATRLLAHKIQSPQEWEAIQALTVLETCMKSCGKRFHDEVGKFRFLNELIKVVSPKYLGSRTSEKVKSKILELLYSWTVCLPEEVKIAEAYQMLKKQGIVKSDPKLPEDAIFPLPPPRPKNVIFEDEEKSKMLARLLKSSHPEDLRAANKLIKEMVQEDQKRMEKISKRVNAIEEVNNNVKLLTEMVMSHSQGAASSSSEDLMKELYQRCERMRPTLFRLASDTEDNDEALAEILQANDNLTQVINLYKQLVRGEEVNGDATASSIPGSTSALLDLSGLDLPPPGTTQPATPTRPGNQSSPEQLSASVSLLDDELMSLGLSDPTPPSGTSSDSVGWDNFQSSDGTESSVPPPAQAPSMDCRPPAQAPPPTSSGLDDLDLLGKTLMQQALPPEAQQVRWEKQQPAPRLTLRDLQSKSSSPSPGAASLLHTTSPEPPGPPPQATPTEFSLTSITVPLESIKPSSILPVTVYDQHGFRVLFHFARDPLPGRSDVLVVVVSMLSTAPQPIRNIVFQSAVPKVMKVRLQPPSGTELPAFNPIVHPSAITQVLLLANPQKEKVRLRYKLIFTMGDQTYNEMGDVDQFPPPETWGSL
B11: GFP-tagged mGGA1 del GAE (aa 1–505) (domain or fragment, UniProt Q8R0H9 1-505)
chain: MEPAMEPETLEARINRATNPLNKELNWASINSFCEQLNEDFEGPPLATRLLAHKIQSPQEWEAIQALTVLETCMKSCGKRFHDEVGKFRFLNELIKVVSPKYLGSRTSEKVKSKILELLYSWTVCLPEEVKIAEAYQMLKKQGIVKSDPKLPEDAIFPLPPPRPKNVIFEDEEKSKMLARLLKSSHPEDLRAANKLIKEMVQEDQKRMEKISKRVNAIEEVNNNVKLLTEMVMSHSQGAASSSSEDLMKELYQRCERMRPTLFRLASDTEDNDEALAEILQANDNLTQVINLYKQLVRGEEVNGDATASSIPGSTSALLDLSGLDLPPPGTTQPATPTRPGNQSSPEQLSASVSLLDDELMSLGLSDPTPPSGTSSDSVGWDNFQSSDGTESSVPPPAQAPSMDCRPPAQAPPPTSSGLDDLDLLGKTLMQQALPPEAQQVRWEKQQPAPRLTLRDLQSKSSSPSPGAASLLHTTSPEPPGPPPQATPTEFSLTSITVPLESIKP
B12: GFP-tagged mGGA1 GAT domain (aa 171–298) (domain or fragment, UniProt Q8R0H9 171-298)
chain: DEEKSKMLARLLKSSHPEDLRAANKLIKEMVQEDQKRMEKISKRVNAIEEVNNNVKLLTEMVMSHSQGAASSSSEDLMKELYQRCERMRPTLFRLASDTEDNDEALAEILQANDNLTQVINLYKQLVR
B13: GFP-tagged mGGA1 del VHS (aa 171–635) (domain or fragment, UniProt Q8R0H9 171-635)
chain: DEEKSKMLARLLKSSHPEDLRAANKLIKEMVQEDQKRMEKISKRVNAIEEVNNNVKLLTEMVMSHSQGAASSSSEDLMKELYQRCERMRPTLFRLASDTEDNDEALAEILQANDNLTQVINLYKQLVRGEEVNGDATASSIPGSTSALLDLSGLDLPPPGTTQPATPTRPGNQSSPEQLSASVSLLDDELMSLGLSDPTPPSGTSSDSVGWDNFQSSDGTESSVPPPAQAPSMDCRPPAQAPPPTSSGLDDLDLLGKTLMQQALPPEAQQVRWEKQQPAPRLTLRDLQSKSSSPSPGAASLLHTTSPEPPGPPPQATPTEFSLTSITVPLESIKPSSILPVTVYDQHGFRVLFHFARDPLPGRSDVLVVVVSMLSTAPQPIRNIVFQSAVPKVMKVRLQPPSGTELPAFNPIVHPSAITQVLLLANPQKEKVRLRYKLIFTMGDQTYNEMGDVDQFPPPETWGSL

Sequences of proteins named here, by UniProt entry; tags and fusion partners are left off. A change or cut given only in a name is not applied to a line headed by its entry.
UniProt Q92581: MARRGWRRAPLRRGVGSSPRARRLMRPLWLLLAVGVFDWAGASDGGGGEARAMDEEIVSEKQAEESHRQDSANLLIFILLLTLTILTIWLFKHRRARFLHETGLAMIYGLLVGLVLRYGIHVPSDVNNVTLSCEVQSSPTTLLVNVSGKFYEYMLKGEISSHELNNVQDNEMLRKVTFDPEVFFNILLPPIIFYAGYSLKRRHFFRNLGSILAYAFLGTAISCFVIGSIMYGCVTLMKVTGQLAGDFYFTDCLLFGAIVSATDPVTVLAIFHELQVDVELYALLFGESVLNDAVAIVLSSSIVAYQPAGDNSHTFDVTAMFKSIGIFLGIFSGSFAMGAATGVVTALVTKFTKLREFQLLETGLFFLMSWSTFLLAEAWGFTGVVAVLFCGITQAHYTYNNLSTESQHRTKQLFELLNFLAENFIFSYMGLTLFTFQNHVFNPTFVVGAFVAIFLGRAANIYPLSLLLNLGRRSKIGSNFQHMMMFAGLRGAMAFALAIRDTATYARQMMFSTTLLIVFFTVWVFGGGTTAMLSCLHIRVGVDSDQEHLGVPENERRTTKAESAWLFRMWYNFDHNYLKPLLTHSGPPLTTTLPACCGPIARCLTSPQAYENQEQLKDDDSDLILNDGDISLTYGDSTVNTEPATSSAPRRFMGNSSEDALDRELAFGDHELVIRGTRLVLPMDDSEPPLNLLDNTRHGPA

No constants are given. Whether binding was seen depends on the method and setting. In cells and extracts the contact can be indirect. Binding calls can cover weak binding; strength is not graded here. Tags and fused reporters may be left off the sequences shown.

The first assay addresses GGA3. The assay can be described thus: co-IP; coexpression in HEK293T cells; GGA3 pulled down, partners found by blot (Fig. S2A).
On to B1, for which the binding result is given as “binds”. Same read-out and setting: the value for B2 was “binds”.

The next assay concerns the target HA-tagged full-length human NHE6.2 (NHE6-HA) (human) (UniProt Q92581). The assay can be described thus: co-IP; HEK293T cells cotransfected with NHE6-HA and a GGA1 construct; lysate precipitated with anti-HA, blotted with anti-GGA1 or anti-GFP.
Regarding B3, the binding result was “binds”.

In the case of B4, the binding result is reported as “binds”.

For the molecule B5, the binding entry is on record as “binds”. The same measure, in the same setting: the result for B6 reads “binds”; that for B7, “binds weakly”.

Consider B8, for which the binding entry is on record as “binds”. On to B9, for which the binding entry is on record as “binds”. With B10, the binding entry is “binds”. Same read-out and setting: the result for B11 reads “binds”; that for B12, “binds”. On the same count and under the same terms, the value for B13 was “binds”.

These data come from PMC11375261.
